The source of these data is patent publication US20230192846A1.

By UniProt entry, the sequences of proteins in these tests, tags left out. Where a name states a change or a piece, a line headed by the entry shows the natural chain unless it says otherwise. Chains listed by the source or under a name are the forms on record and can include a tag or linker.
T327M (Q01974, form named): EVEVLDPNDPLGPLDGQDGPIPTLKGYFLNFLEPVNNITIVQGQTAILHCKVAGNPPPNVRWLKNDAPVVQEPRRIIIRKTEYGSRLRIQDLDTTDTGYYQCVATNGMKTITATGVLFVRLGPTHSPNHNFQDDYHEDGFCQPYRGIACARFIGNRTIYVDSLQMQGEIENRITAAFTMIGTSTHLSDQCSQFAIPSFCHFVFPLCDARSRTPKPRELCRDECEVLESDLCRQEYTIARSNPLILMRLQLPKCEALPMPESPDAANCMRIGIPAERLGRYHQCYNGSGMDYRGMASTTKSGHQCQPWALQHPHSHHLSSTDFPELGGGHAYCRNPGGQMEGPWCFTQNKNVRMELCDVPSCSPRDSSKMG
UniProt Q9Z138: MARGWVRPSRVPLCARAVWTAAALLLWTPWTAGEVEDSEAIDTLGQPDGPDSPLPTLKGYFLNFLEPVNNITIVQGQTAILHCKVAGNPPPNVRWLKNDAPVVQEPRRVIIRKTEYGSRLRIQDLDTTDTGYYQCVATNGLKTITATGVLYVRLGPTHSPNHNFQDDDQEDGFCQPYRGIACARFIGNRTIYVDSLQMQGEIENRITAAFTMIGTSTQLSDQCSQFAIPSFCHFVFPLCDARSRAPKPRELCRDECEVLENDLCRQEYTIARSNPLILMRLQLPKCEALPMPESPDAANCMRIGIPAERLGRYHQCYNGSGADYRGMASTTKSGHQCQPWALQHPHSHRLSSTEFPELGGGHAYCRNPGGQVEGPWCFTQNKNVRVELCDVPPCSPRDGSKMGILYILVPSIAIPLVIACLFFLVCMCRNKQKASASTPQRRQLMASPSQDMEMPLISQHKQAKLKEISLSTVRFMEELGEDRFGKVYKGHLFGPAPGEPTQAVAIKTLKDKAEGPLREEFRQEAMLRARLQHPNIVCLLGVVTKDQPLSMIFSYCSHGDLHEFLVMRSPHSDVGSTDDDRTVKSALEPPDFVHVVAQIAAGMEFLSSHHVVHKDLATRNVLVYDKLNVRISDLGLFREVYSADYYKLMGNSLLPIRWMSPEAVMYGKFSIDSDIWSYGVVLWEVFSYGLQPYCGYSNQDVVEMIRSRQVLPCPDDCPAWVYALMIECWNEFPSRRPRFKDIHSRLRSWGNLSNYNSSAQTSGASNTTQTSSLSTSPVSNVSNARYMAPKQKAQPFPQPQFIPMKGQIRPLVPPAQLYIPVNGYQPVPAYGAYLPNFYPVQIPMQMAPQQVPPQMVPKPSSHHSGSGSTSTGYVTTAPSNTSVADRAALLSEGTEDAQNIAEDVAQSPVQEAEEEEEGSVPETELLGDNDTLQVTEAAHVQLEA

Targets include T327M (human) (UniProt Q01974); hKringle (mouse;human) (UniProt Q9Z138+Q01974); h1-111 aa (human;mouse) (UniProt Q01974+Q9Z138); h1-160 aa (human;mouse) (UniProt Q01974+Q9Z138).
Holding throughout (assay): dot blot; recombinant protein on nylon membrane, probed with the mAb, HRP anti-mouse IgG
The target in test [1] is recombinant human ROR2 with methionine 386 replaced by the valine of mouse ROR2 (human) (UniProt Q01974).
Test [2] has as its target recombinant human ROR2 with aspartic acid 354 replaced by the glutamic acid of mouse ROR2 (human) (UniProt Q01974).
The target of test [3] is recombinant human ROR2 with histidine 349 replaced by the arginine of mouse ROR2 (human) (UniProt Q01974).

These are yes or no findings as the source states them, for the method shown. Some binding calls cover weakened binding; strength is not graded here.

B1: 6E6 anti-human ROR2 monoclonal antibody (antibody, IgG1, V domains shown)
VH: EVQLVESGGDLVKPGGSLKLSCAASGFTFSNYGMSWVRQTPDKRLEWVATISSGGGYTHYVDSVKGRFTISRDNANHILYLQMSSLNSEDTAMYYCARHPRDFSYAMDYWGQGTSVTVSS
VL: DIVMTQSHKFMSTSIGDRVSITCKASQDVGHYVAWYQQKPGQSPKLLIYWASTRHTGVPDRFTGSGSGTDFTLTISNVQSEDLADYFCQQYNIYPWTFGGGSKLAIK
Regarding B1, the binding result (with T327M (human); in test [1]) was “binds” throughout.

B2: 5C11 anti-human ROR2 monoclonal antibody (antibody, IgG1, V domains shown)
VH: EVQLVESGGDLVKPGGSLKLSCAASGFTFSNYGMSWVRQTPDKRLEWVATISSGGGSTYYPDSVKGRFTISRDNAKNSLYLQMSSLKSEDTAMYYCARHPYDYGYYFDYWGQGTTLTVSS
VL: DILLTQSPDILSVSPGERVSFSCRASQSIGTSIHWYQQRTNGSPRLLIKYASESISGIPSRFSGSGSGTDFTLSINSVESEDIADYYCQQSDSWPFPFGSGTKLEKK
Take B2: the binding entry with T327M (human) and with hKringle (mouse;human) was “binds” each time.

B3: 4G9 anti-human ROR2 monoclonal antibody (antibody, IgG2a, V domains shown)
VH: QVQLQQSGAELVRPGASVKLSCKALGYTFTDYEMHWVKQTPVHGLEWIGAIHPGSGGTAYNQKFKGKATLTADKSSSTAYMELSRLTSEDSAVYYCTRRRPRFYGMDYWGQGTSVTVSS
VL: DIVMTQAAPSVPVTPGESVSISCRSSKSLLHSNGNTYLYWFLQRPGQSPQLLIYRMSNLASGVPDRFSGSGSGTAFTLRISRVEAEDVGVYYCMQHLEYPLTVGAGTKLELK
For the molecule B3, the binding result (in the test with T327M (human); in the test with h1-111 aa (human;mouse); in the test with h1-160 aa (human;mouse); in test [2]; in test [3]) was “binds” each time.

B4: 5G3 anti-human ROR2 monoclonal antibody (antibody, IgG2a, V domains shown)
VH: EVQLVESGGGLVQPKGSLKLSCAASGFTFNTYAMNWVRQAPGKGLEWVARIRSKSNNYATYYADSVKDRFTISRDDSQSMLHLQMNNLKTEDTAMYYCVRHGSSLYYAMDYWGQGTSVTVSS
VL: DIQMTQSPSSLSASLGERVSLTCRASQEISGYLGWLQQKPDGTIKRLIYAASTLDSGVPKRFSGSRSGSAYSLTISSLESEDFADYYCLQYASYPYTFGGGTKLEIK
On to B4, for which the binding entry with h1-111 aa (human;mouse) and with h1-160 aa (human;mouse) was “binds” in each case.
